PubChem BioAssay AID652272 – Drosophila RNAi Screening Center | 2013

Test: 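Genes whose knock-down decreases or increases Hedgehog reporter output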 (primary screen)
Cell system: Drosophila clone 8 (Cl8) cells
Reagent: long dsRNA against Drosophila genes
Measurement: 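Plate reader light from a firefly reporter under a ptc promoter fragment that responds to Hedgehog, with Renilla light as transfection reference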
Direction: firefly Hh reporter signal: higher = more ptc reporter light; Renilla reference signal: higher = more Renilla control light
Active means: 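Hit when the z-score averaged over two replicates is under -2 or over +3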
Calls: active = hit: reporter lowered or raised; inactive = not a hit
The screen tested about 21,000 reagents; below is a random part of those with a known target gene and a result. Of all reagents, 503 (2.4%) are marked active. 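Raw plate light values, not normalised; calls rest on replicate z-scores that were not deposited; hits include reporter decreases as well as increases.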 A number with no mark means an inactive call. Not given: the amount of reagent, the time to read-out.

With mal (maroon-like) [DRSC20581], how do the results read?
firefly Hh reporter signal, replicate 1: 94273; firefly Hh reporter signal, replicate 2: 1.05e5; Renilla reference signal, replicate 1: 2200; Renilla reference signal, replicate 2: 2584

How did the screen score CG11658 [DRSC09852]?
firefly Hh reporter signal, replicate 1: 36013; firefly Hh reporter signal, replicate 2: 54732; firefly Hh reporter signal, replicate 3: 53101; Renilla reference signal, replicate 1: 6855; Renilla reference signal, replicate 2: 4144

How did the screen score Srp9 (Signal recognition particle 9) [DRSC10973]?
firefly Hh reporter signal, replicate 1: 51368; firefly Hh reporter signal, replicate 2: 66484; Renilla reference signal, replicate 1: 6600; Renilla reference signal, replicate 2: 4090

For CG1421 [DRSC03707], how do the results read?
firefly Hh reporter signal, replicate 1: 87973; firefly Hh reporter signal, replicate 2: 45125; Renilla reference signal, replicate 1: 2048; Renilla reference signal, replicate 2: 4224

With scu (scully) [DRSC20369], what was measured?
firefly Hh reporter signal, replicate 1: 67968; firefly Hh reporter signal, replicate 2: 2.40e5; Renilla reference signal, replicate 1: 1528; Renilla reference signal, replicate 2: 8432

Which result is listed for obe (obelus) [DRSC15736]?
firefly Hh reporter signal, replicate 1: 1.36e5; firefly Hh reporter signal, replicate 2: 61155; Renilla reference signal, replicate 1: 5341; Renilla reference signal, replicate 2: 1688

How did the screen score dpr7 (defective proboscis extension response 7) [DRSC17109]?
firefly Hh reporter signal, replicate 1: 4.22e5; firefly Hh reporter signal, replicate 2: 1.90e5; Renilla reference signal, replicate 1: 19977; Renilla reference signal, replicate 2: 4040

For CG13699 [DRSC10048], what does the deposit list?
firefly Hh reporter signal, replicate 1: 1.41e5; Renilla reference signal, replicate 1: 4114; Renilla reference signal, replicate 2: 3895

How did the screen score Orai [DRSC05684]?
firefly Hh reporter signal, replicate 1: 1.07e5; firefly Hh reporter signal, replicate 2: 2.44e5; Renilla reference signal, replicate 1: 3333; Renilla reference signal, replicate 2: 10242

Which result is listed for Ptth (Prothoracicotropic hormone) [DRSC00356]?
firefly Hh reporter signal, replicate 1: 1.02e5; firefly Hh reporter signal, replicate 2: 1.01e5; Renilla reference signal, replicate 1: 2724; Renilla reference signal, replicate 2: 2704

What did the screen give for CG34051 [DRSC01739]?
firefly Hh reporter signal, replicate 1: 5.99e5; firefly Hh reporter signal, replicate 2: 2.59e5; firefly Hh reporter signal, replicate 3: 1.14e5; Renilla reference signal, replicate 1: 4608; Renilla reference signal, replicate 2: 6118

For al (aristaless) [DRSC00799], what was measured?
firefly Hh reporter signal, replicate 1: 1.71e5; firefly Hh reporter signal, replicate 2: 1.19e5; Renilla reference signal, replicate 1: 4017; Renilla reference signal, replicate 2: 2709

Which result is listed for LanB2 (Laminin B2) [DRSC11208]?
firefly Hh reporter signal, replicate 1: 1.06e5; firefly Hh reporter signal, replicate 2: 59648; Renilla reference signal, replicate 1: 4732; Renilla reference signal, replicate 2: 2625

For CG3225 [DRSC00578], how do the results read?
firefly Hh reporter signal, replicate 1: 99052; firefly Hh reporter signal, replicate 2: 85555; Renilla reference signal, replicate 1: 4263; Renilla reference signal, replicate 2: 3376

Reprinted from above for reference:
obe (obelus) [DRSC15736] — firefly Hh reporter signal, replicate 1: 1.36e5; firefly Hh reporter signal, replicate 2: 61155; Renilla reference signal, replicate 1: 5341; Renilla reference signal, replicate 2: 1688
dpr7 (defective proboscis extension response 7) [DRSC17109] — firefly Hh reporter signal, replicate 1: 4.22e5; firefly Hh reporter signal, replicate 2: 1.90e5; Renilla reference signal, replicate 1: 19977; Renilla reference signal, replicate 2: 4040
